According to paper PMC11686864:
No constants are given. Whether binding was seen depends on the method and setting. Binding seen in cells or lysates may run through a third protein. Some results given as binding are weak or reduced against the parent protein; the word gives no strength.

Molecular target: T1, Zinc-finger E-box-binding homeobox 1 (ZEB1) (human (endogenous in OPM2)) (UniProt P37275)
T1 sequence: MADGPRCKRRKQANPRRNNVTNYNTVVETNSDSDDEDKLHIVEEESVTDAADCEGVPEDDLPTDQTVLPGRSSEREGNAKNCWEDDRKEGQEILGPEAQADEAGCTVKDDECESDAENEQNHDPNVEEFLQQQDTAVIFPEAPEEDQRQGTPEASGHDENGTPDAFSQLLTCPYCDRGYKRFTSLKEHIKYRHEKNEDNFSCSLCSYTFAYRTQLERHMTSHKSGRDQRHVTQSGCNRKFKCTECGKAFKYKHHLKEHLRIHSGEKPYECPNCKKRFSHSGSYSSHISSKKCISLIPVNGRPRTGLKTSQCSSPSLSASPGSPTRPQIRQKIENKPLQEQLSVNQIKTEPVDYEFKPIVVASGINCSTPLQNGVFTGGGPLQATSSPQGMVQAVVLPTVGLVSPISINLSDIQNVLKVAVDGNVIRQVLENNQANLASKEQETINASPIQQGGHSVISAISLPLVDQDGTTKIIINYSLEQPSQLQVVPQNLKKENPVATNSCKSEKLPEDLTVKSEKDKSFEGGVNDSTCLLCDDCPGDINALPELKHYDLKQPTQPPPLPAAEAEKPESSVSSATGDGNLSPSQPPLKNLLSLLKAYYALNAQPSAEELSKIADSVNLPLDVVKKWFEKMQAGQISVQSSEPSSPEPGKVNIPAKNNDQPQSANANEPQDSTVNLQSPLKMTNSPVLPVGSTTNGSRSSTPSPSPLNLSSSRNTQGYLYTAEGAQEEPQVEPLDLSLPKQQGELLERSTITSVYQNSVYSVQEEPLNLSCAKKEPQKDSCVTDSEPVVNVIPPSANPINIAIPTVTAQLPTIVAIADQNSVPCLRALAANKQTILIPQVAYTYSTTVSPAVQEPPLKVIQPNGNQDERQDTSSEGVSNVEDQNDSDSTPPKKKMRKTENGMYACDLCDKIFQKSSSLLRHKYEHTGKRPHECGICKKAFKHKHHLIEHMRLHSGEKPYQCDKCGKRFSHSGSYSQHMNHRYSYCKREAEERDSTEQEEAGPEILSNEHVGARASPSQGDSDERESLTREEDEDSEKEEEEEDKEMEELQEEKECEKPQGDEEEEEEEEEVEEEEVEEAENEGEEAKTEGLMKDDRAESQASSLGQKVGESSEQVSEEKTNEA
Assay: co-IP; OPM2 lysate (50 mM TRIS-HCl pH 7.4, 150 mM NaCl, 20 mM EDTA, 0.5% NP-40, 1 mM DTT) incubated with 1 ug non-relevant, anti-USP39 or anti-ZEB1 antibody and protein G Sepharose at 4°C overnight; beads washed five times; immunoblot with anti-USP39 or anti-ZEB1

- binding: binds
B1: Ubiquitin-specific peptidase 39 (USP39) (enzyme, UniProt Q53GS9-1 1-565)
chain: MSGRSKRESRGSTRGKRESESRGSSGRVKRERDREREPEAASSRGSPVRVKREFEPASAREAPASVVPFVRVKREREVDEDSEPEREVRAKNGRVDSEDRRSRHCPYLDTINRSVLDFDFEKLCSISLSHINAYACLVCGKYFQGRGLKSHAYIHSVQFSHHVFLNLHTLKFYCLPDNYEIIDSSLEDITYVLKPTFTKQQIANLDKQAKLSRAYDGTTYLPGIVGLNNIKANDYANAVLQALSNVPPLRNYFLEEDNYKNIKRPPGDIMFLLVQRFGELMRKLWNPRNFKAHVSPHEMLQAVVLCSKKTFQITKQGDGVDFLSWFLNALHSALGGTKKKKKTIVTDVFQGSMRIFTKKLPHPDLPAEEKEQLLHNDEYQETMVESTFMYLTLDLPTAPLYKDEKEQLIIPQVPLFNILAKFNGITEKEYKTYKENFLKRFQLTKLPPYLIFCIKRFTKNNFFVEKNPTIVNFPITNVDLREYLSEEVQAVHKNTTYDLIANIVHDGKPSEGSYRIHVLHHGTGKWYELQDLQVTDILPQMITLSEAYIQIWKRRDNDETNQQGA
